No constants are given. Whether binding was seen depends on the method and setting. In cells and extracts the contact can be indirect. A yes stands for co-enrichment or nearness to the bait. Other partners may have been found. Sequences can lack the tags named with a protein.
Target: T1, recombinant His-tagged FGF12 (UniProt P61328)
T1 sequence: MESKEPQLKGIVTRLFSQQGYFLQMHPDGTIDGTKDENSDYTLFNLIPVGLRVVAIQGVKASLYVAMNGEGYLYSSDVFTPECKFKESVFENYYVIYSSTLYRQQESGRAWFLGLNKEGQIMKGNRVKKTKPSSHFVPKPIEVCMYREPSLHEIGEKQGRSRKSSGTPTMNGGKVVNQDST
Test: affinity purification with mass spectrometry; recombinant His-tagged FGF12 coupled to Ni-NTA / Ni Sepharose resin, incubated with U2OS cell lysate; on-bead trypsin digestion, LC-MS/MS; only the target purified

Protein sequences, listed by entry. Tags and fused reporters are not part of them.
UniProt Q9NYF8: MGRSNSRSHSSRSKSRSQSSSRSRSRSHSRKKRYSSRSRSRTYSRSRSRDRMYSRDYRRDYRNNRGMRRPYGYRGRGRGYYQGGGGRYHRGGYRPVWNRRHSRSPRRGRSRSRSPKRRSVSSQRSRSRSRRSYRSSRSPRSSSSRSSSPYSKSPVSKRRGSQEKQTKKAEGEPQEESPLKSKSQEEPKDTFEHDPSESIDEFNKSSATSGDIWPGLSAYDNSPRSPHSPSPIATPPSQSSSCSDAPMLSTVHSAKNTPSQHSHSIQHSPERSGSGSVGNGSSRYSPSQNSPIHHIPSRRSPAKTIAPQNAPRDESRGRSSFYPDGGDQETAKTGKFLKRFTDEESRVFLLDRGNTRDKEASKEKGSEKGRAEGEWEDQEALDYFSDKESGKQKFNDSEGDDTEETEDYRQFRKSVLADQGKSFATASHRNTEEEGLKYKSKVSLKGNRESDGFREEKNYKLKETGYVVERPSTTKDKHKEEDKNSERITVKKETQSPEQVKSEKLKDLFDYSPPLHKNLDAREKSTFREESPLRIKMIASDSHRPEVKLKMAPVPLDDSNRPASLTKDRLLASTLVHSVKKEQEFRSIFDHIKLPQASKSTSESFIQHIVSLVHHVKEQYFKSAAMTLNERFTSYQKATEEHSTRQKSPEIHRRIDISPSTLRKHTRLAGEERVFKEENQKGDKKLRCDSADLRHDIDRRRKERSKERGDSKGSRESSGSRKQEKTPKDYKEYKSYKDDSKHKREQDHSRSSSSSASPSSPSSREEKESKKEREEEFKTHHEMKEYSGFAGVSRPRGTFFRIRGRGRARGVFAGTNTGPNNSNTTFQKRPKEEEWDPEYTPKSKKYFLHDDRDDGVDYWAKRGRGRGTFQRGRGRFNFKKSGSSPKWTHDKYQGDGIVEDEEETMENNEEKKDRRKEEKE
UniProt Q14978: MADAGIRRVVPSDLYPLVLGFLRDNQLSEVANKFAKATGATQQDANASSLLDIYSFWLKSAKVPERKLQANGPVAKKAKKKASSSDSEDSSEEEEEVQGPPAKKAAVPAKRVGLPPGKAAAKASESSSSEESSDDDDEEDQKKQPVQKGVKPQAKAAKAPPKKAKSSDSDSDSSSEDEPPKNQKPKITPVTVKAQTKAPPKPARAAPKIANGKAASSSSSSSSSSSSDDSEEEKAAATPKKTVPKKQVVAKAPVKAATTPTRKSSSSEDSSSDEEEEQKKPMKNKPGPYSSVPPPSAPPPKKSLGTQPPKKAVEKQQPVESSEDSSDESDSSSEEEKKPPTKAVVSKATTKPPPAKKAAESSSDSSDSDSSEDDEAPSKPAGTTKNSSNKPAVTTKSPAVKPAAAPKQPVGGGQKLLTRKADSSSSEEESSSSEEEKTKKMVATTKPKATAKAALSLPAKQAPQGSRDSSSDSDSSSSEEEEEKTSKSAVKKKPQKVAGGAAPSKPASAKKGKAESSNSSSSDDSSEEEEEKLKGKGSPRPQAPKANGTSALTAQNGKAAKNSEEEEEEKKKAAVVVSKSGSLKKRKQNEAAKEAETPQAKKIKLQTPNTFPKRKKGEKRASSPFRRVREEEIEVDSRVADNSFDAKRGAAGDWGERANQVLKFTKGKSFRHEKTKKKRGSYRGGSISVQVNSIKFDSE

Substance	binding
Bcl-2-associated transcription factor 1 (from UniProt Q9NYF8 1-920)	binds
nucleolar and coiled-body phosphoprotein 1 (from UniProt Q14978 1-699)	binds

— article PMC9677703
